ChEMBL document CHEMBL1133758, “Docking-based development of purine-like inhibitors of cyclin-dependent kinase-2” (J Med Chem, 2000)
pIC50: −log10 of the molar value.

Sequences of proteins named here, by UniProt entry; tags and fusion partners are left off.
UniProt P06493, whole entry: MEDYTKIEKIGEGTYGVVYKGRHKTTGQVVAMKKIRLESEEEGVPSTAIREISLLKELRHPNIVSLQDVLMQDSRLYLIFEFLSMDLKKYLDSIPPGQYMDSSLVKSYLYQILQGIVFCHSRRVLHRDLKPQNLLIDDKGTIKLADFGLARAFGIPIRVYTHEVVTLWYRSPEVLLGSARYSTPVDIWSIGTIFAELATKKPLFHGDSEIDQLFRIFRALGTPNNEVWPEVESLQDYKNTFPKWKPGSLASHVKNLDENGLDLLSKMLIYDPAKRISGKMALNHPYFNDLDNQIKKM

Biological target: Cyclin-dependent kinase 1 (Homo sapiens, UniProt P06493)
Test: Inhibition of Cyclin-dependent kinase 1

CC(C)n1cnc2c(NCc3ccccc3)nc(NCCCO)nc21 [BOHEMINE]
pIC50: 5.60
